Source: article PMC10137900
Results are given in words; binding and its absence hold for the method and conditions named. Some entries that bind do so weakly or less than the wild type.

Sequences of proteins named here, by UniProt entry; tags and fusion partners are left off. A change or cut given only in a name is not applied to a line headed by its entry.
UniProt P28340: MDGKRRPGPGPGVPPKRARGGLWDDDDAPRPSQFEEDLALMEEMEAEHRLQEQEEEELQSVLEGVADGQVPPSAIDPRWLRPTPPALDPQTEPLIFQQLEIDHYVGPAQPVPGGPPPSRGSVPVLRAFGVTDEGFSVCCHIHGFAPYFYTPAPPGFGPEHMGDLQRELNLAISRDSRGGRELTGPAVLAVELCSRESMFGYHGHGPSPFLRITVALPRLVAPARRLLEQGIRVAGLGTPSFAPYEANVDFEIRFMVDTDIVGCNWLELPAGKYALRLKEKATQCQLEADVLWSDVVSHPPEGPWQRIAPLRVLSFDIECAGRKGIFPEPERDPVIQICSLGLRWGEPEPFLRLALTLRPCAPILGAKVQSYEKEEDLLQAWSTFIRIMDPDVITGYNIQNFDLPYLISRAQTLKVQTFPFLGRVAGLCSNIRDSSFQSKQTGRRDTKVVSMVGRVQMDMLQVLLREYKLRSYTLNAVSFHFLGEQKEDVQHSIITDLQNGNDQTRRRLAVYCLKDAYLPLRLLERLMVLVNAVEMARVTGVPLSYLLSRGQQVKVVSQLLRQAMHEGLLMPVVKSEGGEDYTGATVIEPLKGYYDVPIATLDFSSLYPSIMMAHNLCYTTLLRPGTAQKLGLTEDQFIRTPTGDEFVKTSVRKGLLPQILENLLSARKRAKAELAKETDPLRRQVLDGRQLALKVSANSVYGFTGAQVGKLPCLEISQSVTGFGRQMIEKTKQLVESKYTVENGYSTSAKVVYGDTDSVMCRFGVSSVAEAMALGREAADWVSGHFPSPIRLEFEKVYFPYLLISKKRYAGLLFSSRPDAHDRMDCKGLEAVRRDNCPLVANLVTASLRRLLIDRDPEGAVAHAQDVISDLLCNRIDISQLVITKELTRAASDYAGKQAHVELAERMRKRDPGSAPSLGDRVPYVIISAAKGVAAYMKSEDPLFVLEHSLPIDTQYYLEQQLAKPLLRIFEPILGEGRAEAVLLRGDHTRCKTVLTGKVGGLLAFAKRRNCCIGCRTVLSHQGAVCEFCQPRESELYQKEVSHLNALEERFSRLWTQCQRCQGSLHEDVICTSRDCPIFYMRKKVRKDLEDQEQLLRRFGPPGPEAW
UniProt P49005: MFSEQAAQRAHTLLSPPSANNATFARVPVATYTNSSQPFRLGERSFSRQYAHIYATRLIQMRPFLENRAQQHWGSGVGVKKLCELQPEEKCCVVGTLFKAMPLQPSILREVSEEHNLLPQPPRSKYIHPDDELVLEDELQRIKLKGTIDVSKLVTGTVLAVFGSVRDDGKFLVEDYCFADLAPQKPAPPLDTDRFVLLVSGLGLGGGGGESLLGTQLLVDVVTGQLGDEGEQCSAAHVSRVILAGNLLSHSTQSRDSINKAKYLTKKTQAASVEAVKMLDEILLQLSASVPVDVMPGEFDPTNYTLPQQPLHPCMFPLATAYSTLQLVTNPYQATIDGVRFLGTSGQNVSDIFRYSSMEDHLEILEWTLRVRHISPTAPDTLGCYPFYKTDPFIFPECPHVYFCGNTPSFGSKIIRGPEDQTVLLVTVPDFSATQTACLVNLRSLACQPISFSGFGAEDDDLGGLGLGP

B1: Human DNA polymerase δ subunit p66 (protein, UniProt Q15054 1-466)
chain: MADQLYLENIDEFVTDQNKIVTYKWLSYTLGVHVNQAKQMLYDYVERKRKENSGAQLHVTYLVSGSLIQNGHSCHKVAVVREDKLEAVKSKLAVTASIHVYSIQKAMLKDSGPLFNTDYDILKSNLQNCSKFSAIQCAAAVPRAPAESSSSSKKFEQSHLHMSSETQANNELTTNGHGPPASKQVSQQPKGIMGMFASKAAAKTQETNKETKTEAKEVTNASAAGNKAPGKGNMMSNFFGKAAMNKFKVNLDSEQAVKEEKIVEQPTVSVTEPKLATPAGLKKSSKKAEPVKVLQKEKKRGKRVALSDDETKETENMRKKRRRIKLPESDSSEDEVFPDSPGAYEAESPSPPPPPSPPLEPVPKTEPEPPSVKSSSGENKRKRKRVLKSKTYLDGEGCIVTEKVYESESCTDSEEELNMKTSSVHRPPAMTVKKEPREERKGPKKGTAALGKANRQVSITGFFQRK
B2: Human DNA polymerase δ subunit p12 (protein, UniProt Q9HCU8 1-107)
chain: MGRKRLITDSYPVVKRREGPAGHSKGELAPELGEEPQPRDEEEAELELLRQFDLAWQYGPCTGITRLQRWCRAKQMGLEPPPEVWQVLKTHPGDPRFQCSLWHLYPL

Target: Human DNA polymerase δ catalytic subunit p125 (human) (UniProt P28340)
Test: SEC; four subunits co-expressed in E. coli; complex eluted from Ni-NTA, dialysed and concentrated, then run on an SEC column (Bio-Rad) at 0.5 mL/min in 40 mM HEPES pH 7.5, 100 mM NaCl, 10% glycerol; both purified

Row | Molecule | binding
1 | Human DNA polymerase δ subunit p50 (from UniProt P49005 1-469) | binds
2 | B1 | binds
3 | B2 | binds
